Our source for the binding values is PMC11056506.

By UniProt entry, the sequences of proteins in these tests, tags left out.
UniProt O08573: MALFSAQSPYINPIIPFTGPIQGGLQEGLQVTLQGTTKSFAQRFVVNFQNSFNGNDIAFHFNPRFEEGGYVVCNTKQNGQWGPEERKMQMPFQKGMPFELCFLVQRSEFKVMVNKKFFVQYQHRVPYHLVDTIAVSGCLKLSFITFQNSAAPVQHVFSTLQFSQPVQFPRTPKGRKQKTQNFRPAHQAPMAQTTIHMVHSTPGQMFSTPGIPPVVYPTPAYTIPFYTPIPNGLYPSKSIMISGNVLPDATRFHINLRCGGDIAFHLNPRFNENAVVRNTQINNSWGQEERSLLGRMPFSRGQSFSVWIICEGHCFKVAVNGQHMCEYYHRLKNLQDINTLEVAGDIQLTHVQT

Results are given in words; binding and its absence hold for the method and conditions named. Binding seen in cells or lysates may run through a third protein. Some results given as binding are weak or reduced against the parent protein; the word gives no strength.

In this experiment the target is Galectin-9 (mouse (endogenous in mouse intestinal tissue)) (UniProt O08573). The experiment can be described thus: co-IP; lysates of mice intestinal tissues immunoprecipitated with IP antibody-coupled agarose beads, then western blotting; IgG as negative control; IP antibody not named. (In general: A western blot detects proteins with antibodies after separation by electrophoresis.)

B1: Carcinoembryonic antigen-related cell adhesion molecule 5 (CEACAM5) (protein, UniProt Q3UKK2 35-947)
chain: QITIELEPPQVIEGENVLIRVNNLTENLITLAWFRGMRIKSPQIGQYTPATKVTVLGPGHSGRETLYSNGSLQIYNVTQEDIGFYSLRIINKHAEIVSITSIYLNVYSSLWTCEHPSPHAKLTIESVPPGISEGGSVLLLVKNLPQNLLSLFWYKGVIAVKKFEIARHIKATNSSVPGPAHTGRETVFSNGSLLLQEVMQSDTGFYTLRTMSTDLKDEVAHVQLYMDTYLLTCYHPLQVKIESLPQNVAVGKTVLLLVHNLPEDFQAFFWYKSAYRRDTYKIAEYKRAMDATILGSAYSSREFIYNNGSMLIIDVTEDDAGYFLLEILREDLKIEKAYIQLHVNSFVSNSKDSASTARLSIESVPPSIVEGGSVLLLVHNLPKNLQSLFWYKGMIAEKKSELIQHIIATSSSLPGPAHSGRETVYNNGSLLLQRVMQNDTQFYTLQTMDTDLKYEVAHVQLQLDTSLSTWYHPLQVKIESLPRNVAVGKSVLFLVHNFPEVFRAFSWYKPAYKSHTSKIVEYHRFTDSATVGAAYRGIEVIFTNGSMVMIDVTEDDAGFYMLEILREDFKVEKAYVQLHVNSFVPNSKVSVSTARLSIESVPPSIVGGESVLLLVHNLPKNLQSLFWYKGVIAEEKSELIQHIIATSSSLPGPAHSGRETVYSNGSLLLQRVMQNDTGFYTLLTMSTDLKDEIAHVQLQLDTSTCCSLLTSDQLIIVPVPRNIAVGKSVLLLVCNVPKDVQTIFWYKSVYRTDIFKIAEYSRSMESTIWGLAHSGKEMVYTNGSLLIQNVTEHDAGLYMLEILHKDYKLERAHVQVHVNNPVSWPFVRVTDTTVRVQSSVVFTCFSADPGVSIRWLFNKQSLQLTERMTLSPSKCQLSIDPVWREDAGKYQCEVSNPVSSKSSLPVRLAVIEE
As to B1, the binding result was “binds”.
